Source: article doi:10.1101/2022.11.16.516846

Legend:
[1] = target: T1, FAM21 (endogenous, Kc cell nuclear lysate) (Drosophila (endogenous in Kc cells)) (UniProt A1ZBW7); experiment: native gel or EMSA
T1 sequence: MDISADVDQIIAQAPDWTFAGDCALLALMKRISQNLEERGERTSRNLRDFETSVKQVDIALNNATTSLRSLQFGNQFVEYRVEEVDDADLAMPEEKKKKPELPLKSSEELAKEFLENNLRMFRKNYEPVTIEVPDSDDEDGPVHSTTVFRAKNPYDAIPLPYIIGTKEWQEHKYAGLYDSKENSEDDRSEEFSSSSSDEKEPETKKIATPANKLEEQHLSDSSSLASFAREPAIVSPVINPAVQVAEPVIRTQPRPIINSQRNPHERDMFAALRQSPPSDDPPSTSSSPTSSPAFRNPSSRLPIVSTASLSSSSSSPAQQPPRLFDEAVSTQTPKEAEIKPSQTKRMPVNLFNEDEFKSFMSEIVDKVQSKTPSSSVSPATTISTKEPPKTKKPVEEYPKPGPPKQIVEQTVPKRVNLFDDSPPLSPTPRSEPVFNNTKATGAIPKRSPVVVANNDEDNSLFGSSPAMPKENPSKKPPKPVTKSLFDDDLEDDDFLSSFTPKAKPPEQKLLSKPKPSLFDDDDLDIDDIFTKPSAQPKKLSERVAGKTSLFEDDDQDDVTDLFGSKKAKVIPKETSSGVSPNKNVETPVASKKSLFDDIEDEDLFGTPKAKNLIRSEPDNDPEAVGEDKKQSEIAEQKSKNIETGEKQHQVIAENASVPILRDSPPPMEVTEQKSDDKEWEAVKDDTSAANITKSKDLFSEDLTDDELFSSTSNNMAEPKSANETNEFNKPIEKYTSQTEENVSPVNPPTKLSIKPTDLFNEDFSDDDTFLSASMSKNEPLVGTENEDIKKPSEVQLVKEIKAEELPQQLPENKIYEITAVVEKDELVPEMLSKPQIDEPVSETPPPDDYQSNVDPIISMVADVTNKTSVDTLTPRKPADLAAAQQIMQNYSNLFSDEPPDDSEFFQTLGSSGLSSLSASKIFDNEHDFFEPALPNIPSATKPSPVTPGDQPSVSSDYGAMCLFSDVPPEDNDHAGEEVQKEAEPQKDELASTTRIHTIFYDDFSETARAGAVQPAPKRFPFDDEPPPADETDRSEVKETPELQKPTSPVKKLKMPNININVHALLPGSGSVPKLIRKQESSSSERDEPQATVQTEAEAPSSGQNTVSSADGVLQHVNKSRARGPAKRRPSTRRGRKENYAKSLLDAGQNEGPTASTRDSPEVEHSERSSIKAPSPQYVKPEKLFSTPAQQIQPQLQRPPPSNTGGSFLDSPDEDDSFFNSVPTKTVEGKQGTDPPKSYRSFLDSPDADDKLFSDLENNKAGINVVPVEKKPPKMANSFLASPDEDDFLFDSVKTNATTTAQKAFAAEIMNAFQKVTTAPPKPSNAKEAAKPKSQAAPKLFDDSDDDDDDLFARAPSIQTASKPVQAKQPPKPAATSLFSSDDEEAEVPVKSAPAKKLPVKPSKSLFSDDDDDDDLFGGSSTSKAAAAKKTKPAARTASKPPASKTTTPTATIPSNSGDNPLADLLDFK

[2] = target: T1, FAM21 (endogenous, Kc cell nuclear lysate) (Drosophila (endogenous in Kc cells)); experiment: co-IP
[3] = target: T2, CCDC53 (endogenous, Kc cell nuclear lysate) (Drosophila (endogenous in Kc cells)) (UniProt Q9VLT8); experiment: co-IP
T2 sequence: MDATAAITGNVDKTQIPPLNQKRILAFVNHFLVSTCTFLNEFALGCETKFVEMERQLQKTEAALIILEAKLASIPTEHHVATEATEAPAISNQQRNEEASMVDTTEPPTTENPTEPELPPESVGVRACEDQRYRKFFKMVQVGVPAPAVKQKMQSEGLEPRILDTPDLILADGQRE

binding [1]: no binding
binding [2]: no binding
binding [3]: no binding
Substance: Pavarotti (endogenous)

No constants are given. Whether binding was seen depends on the method and setting. For part of these data: Binding seen in cells or lysates may run through a third protein.
